Measurements published in PubChem BioAssay AID330 (DTP/NCI, 2004).
The list shows only some results of the screen, not a fair sample: it is rich in T/C values a quarter to a half above the control, in often repeated tests (any T/C) and in doses without a T/C. Further doses and runs are listed elsewhere. T/C is the treated group as % of the vehicle group. Some entries give survivors of the animals treated and no T/C: the source holds a T/C of zero for them, seemingly a mark for toxic or unscored doses. Some survivor counts are full or nearly so, which does not show that the dose was tolerated: survival well below the control is almost never listed, so the zero probably covers shortened survival too. Survivors were counted at the toxicity check, usually on the fifth day, unless a day is given; later deaths do not show. Schedule codes are those of the source, read here as Q, the interval in days (D) or hours (H), X, the number of doses. Some entries were tested several times; the results are listed from low to high. Some structures stand for samples that the source files as different forms (salt, stereo form or complex); doses refer to the form tested. For survival time, the PubChem record calls one and a half times the control and up active, and a quarter to a half above the control has no call in these data; cut-offs in other NCI protocols can differ. Some T/C values are followed by the survivors on the day toxicity was checked, most often the fifth; where none is given, no animal had died by that day.

Test system: P388 leukemia ip, CD2F1 mice, survival T/C
Experiment: NCI In Vivo Anticancer Drug Screen. Data for tumor model P388 Leukemia (intraperitoneal) in CD2F1 (CDF1) mice
Details: T/C endpoint: median survival time, higher T/C = longer survival
[1] = dose: 200.0 mg/kg/injection, schedule: Q01DX005 (ip), vehicle: saline with Tween-80
[2] = dose: 50.0 mg/kg/injection, schedule: Q01DX009 (ip), vehicle: distilled water + Tween-80
[3] = dose: 200.0 mg/kg/injection, schedule: Q01DX005 (ip), vehicle: Klucel (hydroxypropylcellulose) (HPC)
[4] = dose: 200.0 mg/kg/injection, schedule: Q01DX009 (ip), vehicle: saline with Tween-80
[5] = dose: 100.0 mg/kg/injection, schedule: Q01DX009 (ip), vehicle: saline
[6] = dose: 100.0 mg/kg/injection, schedule: Q01DX009 (ip), vehicle: saline with Tween-80
[7] = dose: 200.0 mg/kg/injection, schedule: Q01DX009 (ip), vehicle: saline

## CCOC(=O)Nc1cc2c(c(N)n1)N=C(c1ccc(N)cc1)CN2
dose: 50.0 mg/kg/injection, schedule: Q01DX001 (ip), vehicle: saline
  T/C: 135 % of control [5 of 6 alive]
dose: 100.0 mg/kg/injection, schedule: Q01DX001 (ip), vehicle: saline
  survivor count: 0 of 6

## Cc1ccc(S(=O)(=O)N/N=C2\COC(C)C2)cc1 (configuration not stated)
[1]
  survivor count: 6 of 6

## CNC(=O)OCc1c(COC(=O)NC)c(-c2ccc(Cl)c(Cl)c2)n(C)c1C
dose: 6.25 mg/kg/injection, schedule: Q01DX009 (ip), vehicle: distilled water + Tween-80
  T/C: 137 [5 of 6 alive] and 145 % of control
dose: 12.5 mg/kg/injection, schedule: Q01DX009 (ip), vehicle: distilled water + Tween-80
  T/C: 138 and 148 % of control
[2]
  T/C: 133 % of control
  survivor count: 6 of 6
dose: 100.0 mg/kg/injection, schedule: Q01DX009 (ip), vehicle: distilled water + Tween-80
  survivor count: 1 of 6 and 2 of 6

## COc1ccc2c(c1)C(c1cccc3ccccc13)OC2 (configuration not stated)
dose: 100.0 mg/kg/injection, schedule: Q01DX005 (ip), vehicle: Klucel (hydroxypropylcellulose) (HPC)
  survivor count: 5 of 5
[3]
  survivor count: 6 of 6

## COc1cccc2c1C(=O)c1c(O)c3c(c(O)c1C2=O)[C@@H](OC)[C@@](O)(C(=O)CO)C[C@@H]3OC1CC(N)C(O)C(C)O1 (some centres not stated)
dose: 6.25 mg/kg/injection, schedule: Q04DX003 (ip), vehicle: water, evaluated on day 30
  T/C: 125 % of control
dose: 6.25 mg/kg/injection, schedule: Q04DX003 (ip), vehicle: water, evaluated on day 50
  T/C: 141 % of control
dose: 12.5 mg/kg/injection, schedule: Q04DX003 (ip), vehicle: water
  T/C: 127 % of control
dose: 50.0 mg/kg/injection, schedule: Q04DX003 (ip), vehicle: water
  survivor count: 6 of 6 on day 9

## OC(c1cc(C(F)(F)F)nc2c(Cl)cc(Cl)cc12)C1CCCCN1 (configuration not stated)
[4]
  survivor count: 4 of 6

## CC(=O)NNC(=O)CCCCCCC(=O)NNC(C)=O
[3]
  survivor count: 3 of 6
dose: 400.0 mg/kg/injection, schedule: Q01DX005 (ip), vehicle: Klucel (hydroxypropylcellulose) (HPC)
  survivor count: 0 of 6

## CCC(c1ccc(OCCS(=O)(=O)OC)cc1)C(CC)c1ccc(OCCS(=O)(=O)OC)cc1 (configuration not stated)
[5]
  survivor count: 6 of 6
dose: 100.0 mg/kg/injection, schedule: Q01DX009 (ip), vehicle: suspension in saline
  survivor count: 5 of 6
dose: 200.0 mg/kg/injection, schedule: Q01DX009 (ip), vehicle: suspension in saline
  survivor count: 6 of 6

## IC1=CC2CCC(C1)C2 (configuration not stated)
[6]
  T/C: 133 % of control

## COC(=O)C(C)N(CCCl)P1(=O)OCCCN1CCCl (configuration not stated)
dose: 120.0 mg/kg/injection, schedule: Q01DX005 (ip), vehicle: saline
  T/C: 125 % of control

## CN1CCC(=C(C#N)C#N)CC1
[6]
  survivor count: 3 of 6

## C=C1C(=O)C23C(OC(=O)c4ccc(Br)cc4)C1CCC2C12COC3(O)C(O)C1C(C)(C)CCC2O (configuration not stated)
dose: 30.0 mg/kg/injection, schedule: Q01DX009 (ip), vehicle: saline with Tween-80
  T/C: 125 % of control

## C=C(CN(CC(=C)C(=O)c1ccccc1)C(C)(C)C)C(=O)c1ccccc1
dose: 50.0 mg/kg/injection, schedule: Q01DX009 (ip), vehicle: saline with Tween-80
  survivor count: 2 of 6
[6]
  survivor count: 0 of 6
[4]
  survivor count: 0 of 6

## COc1cccc2c1C(=O)c1c(O)c3c(c(O)c1C2=O)C[C@@](O)(/C(C)=N/NC(=O)c1ccc(O)cc1)C[C@@H]3OC1CC(N)C(O)C(C)O1 (some centres not stated)
dose: 1.0 mg/kg/injection, schedule: Q01DX009 (ip), vehicle: water
  T/C: 145 % of control
dose: 16.0 mg/kg/injection, schedule: Q01DX009 (ip), vehicle: water
  survivor count: 6 of 6
dose: 40.0 mg/kg/injection, schedule: Q01DX001 (ip), vehicle: water
  survivor count: 5 of 6
dose: 80.0 mg/kg/injection, schedule: Q01DX001 (ip), vehicle: water
  survivor count: 5 of 6
dose: 160.0 mg/kg/injection, schedule: Q01DX001 (ip), vehicle: water
  survivor count: 0 of 6
dose: 320.0 mg/kg/injection, schedule: Q01DX001 (ip), vehicle: water
  survivor count: 0 of 6

## CCOC(=O)c1cc2c(nc1C)-c1ccccc1OC2Nc1ccccc1 (configuration not stated)
dose: 12.5 mg/kg/injection, schedule: Q01DX005 (ip), vehicle: saline with Tween-80
  survivor count: 6 of 6
dose: 25.0 mg/kg/injection, schedule: Q01DX005 (ip), vehicle: saline with Tween-80
  survivor count: 6 of 6
dose: 200.0 mg/kg/injection, schedule: Q01DX001 (ip), vehicle: saline with Tween-80
  survivor count: 6 of 6
dose: 400.0 mg/kg/injection, schedule: Q01DX001 (ip), vehicle: saline with Tween-80
  survivor count: 6 of 6

## C=CCOc1c2c(cc3ccc(=O)oc13)CC=CO2
dose: 200.0 mg/kg/injection, schedule: Q01DX009 (ip), vehicle: Klucel (hydroxypropylcellulose) (HPC)
  survivor count: 2 of 6

## CC1(C)CC2(C)OC2C2(C1)N=NC(=Nc1ccccc1)O2 (configuration not stated)
[4]
  survivor count: 5 of 6
dose: 400.0 mg/kg/injection, schedule: Q01DX009 (ip), vehicle: saline with Tween-80
  survivor count: 4 of 6 and 5 of 6

## COC(=O)c1cc(-c2ccc3ccccc3c2)[nH]c(=O)c1C#N
dose: 120.0 mg/kg/injection, schedule: Q01DX005 (ip), vehicle: saline with Tween-80
  survivor count: 6 of 6
dose: 240.0 mg/kg/injection, schedule: Q01DX005 (ip), vehicle: saline with Tween-80
  survivor count: 1 of 6

## Cc1c2ccccc2c(CSC(=N)N)c2ccccc12
dose: 2.2 mg/kg/injection, schedule: Q01DX009 (ip), vehicle: saline
  T/C: 130 % of control
dose: 3.3 mg/kg/injection, schedule: Q01DX009 (ip), vehicle: saline
  T/C: 130 % of control

## C=CC(=O)N1CN(C(=O)C=C)CN(C(=O)C=C)C1
dose: 3.12 mg/kg/injection, schedule: Q01DX009 (ip), vehicle: saline with Tween-80
  T/C: 144 [5 of 6 alive] and 148 % of control [5 of 6 alive]
dose: 6.25 mg/kg/injection, schedule: Q01DX009 (ip), vehicle: saline with Tween-80
  T/C: 142 % of control
dose: 12.5 mg/kg/injection, schedule: Q01DX009 (ip), vehicle: saline with Tween-80
  T/C: 143 % of control
dose: 25.0 mg/kg/injection, schedule: Q01DX009 (ip), vehicle: saline with Tween-80
  survivor count: 0 of 6

## C=CCN(CC=C)C(=O)CCN1CC1
dose: 10.0 mg/kg/injection, schedule: Q04DX003 (ip), vehicle: saline
  survivor count: 5 of 6
dose: 20.0 mg/kg/injection, schedule: Q04DX003 (ip), vehicle: saline
  survivor count: 1 of 6
dose: 40.0 mg/kg/injection, schedule: Q04DX003 (ip), vehicle: saline
  survivor count: 0 of 6

## COC(=O)C1(C(=O)OC)CCCC2=NOC3CCC1C23 (configuration not stated)
dose: 60.0 mg/kg/injection, schedule: Q01DX005 (ip), vehicle: Klucel (hydroxypropylcellulose) (HPC)
  survivor count: 0 of 6
dose: 120.0 mg/kg/injection, schedule: Q01DX005 (ip), vehicle: Klucel (hydroxypropylcellulose) (HPC)
  survivor count: 0 of 6
dose: 240.0 mg/kg/injection, schedule: Q01DX005 (ip), vehicle: Klucel (hydroxypropylcellulose) (HPC)
  survivor count: 0 of 6

## CCCCN(CCCC)C(=N)OC
dose: 100.0 mg/kg/injection, schedule: Q01DX005 (ip), vehicle: saline
  survivor count: 1 of 5
dose: 200.0 mg/kg/injection, schedule: Q01DX005 (ip), vehicle: saline
  survivor count: 0 of 5

## CCN(CC)CCCC(C)NC(=S)N/N=C(\C)c1ccccn1 (configuration not stated)
[5]
  T/C: 128 and 133 % of control
[7]
  survivor count: 2 of 6
dose: 400.0 mg/kg/injection, schedule: Q01DX009 (ip), vehicle: saline
  survivor count: 0 of 6

## CCN(CC)c1nc(Cl)nc(N(CC)CC)n1
dose: 400.0 mg/kg/injection, schedule: Q01DX005 (ip), vehicle: saline with Tween-80
  survivor count: 3 of 6

## O=C(O)c1c(Cl)c(Cl)c(Cl)c(Cl)c1-c1c2cc(I)c(=O)c(I)c-2oc2c(I)c(O)c(I)cc12
[1]
  survivor count: 3 of 5
[7]
  survivor count: 3 of 6

## C=CC(=NC(C)(C)C)Nc1ccccc1C(=O)OC
[6]
  survivor count: 3 of 6
[4]
  survivor count: 0 of 6

## C/C(=N\NC(=S)Nc1ccc(S(N)(=O)=O)cc1)c1ccccn1
dose: 50.0 mg/kg/injection, schedule: Q01DX005 (ip), vehicle: saline with Tween-80
  T/C: 128 % of control
dose: 100.0 mg/kg/injection, schedule: Q01DX005 (ip), vehicle: saline with Tween-80
  T/C: 128 % of control
[1]
  survivor count: 2 of 6
